Experimental data reported in PMC4014447.
Results are given in words; binding and its absence hold for the method and conditions named. In cells and extracts the contact can be indirect. A result given as binding can be weak or reduced; the word gives no strength.

Molecular target: Myc-tagged wild-type LMX1B (long form, -L) (mouse)
Experiment: co-IP; HEK 293T cells transfected with pcDNA-LDB1 along with WT-Myc and ICST-FLAG as indicated; lysate immunoprecipitated with anti-c-Myc agarose; Western blot with anti-Myc, anti-FLAG and anti-LDB1

B1: LIM domain binding protein 1 (LDB1) (protein, UniProt P70662 1-411)
chain: MSVGCACPGCSSKSFKLYSPKEPPNGNAFPPFHPGTMLDRDVGPTPMYPPTYLEPGIGRHTPYGNQTDYRIFELNKRLQNWTEECDNLWWDAFTTEFFEDDAMLTITFCLEDGPKRYTIGRTLIPRYFRSIFEGGATELYYVLKHPKEAFHSNFVSLDCDQGSMVTQHGKPMFTQVCVEGRLYLEFMFDDMMRIKTWHFSIRQHRELIPRSILAMHAQDPQMLDQLSKNITRCGLSNSTLNYLRLCVILEPMQELMSRHKTYSLSPRDCLKTCLFQKWQRMVAPPAEPARQQPSKRRKRKMSGGSTMSSGGGNTNNSNSKKKSPASTFALSSQVPDVMVVGEPTLMGGEFGDEDERLITRLENTQFDAANGIDDEDSFNNSPALGANSPWNSKPPSSQESKSENPTSQASQ
binding: binds
